Publication PMC11077062
Results are given in words; binding and its absence hold for the method and conditions named. Binding seen in cells or lysates may run through a third protein. Some results given as binding are weak or reduced against the parent protein; the word gives no strength. Where a sequence is shown, tags or fusion partners need not be part of it.

Protein sequences, listed by entry. Tags and fused reporters are not part of them.
UniProt P60281: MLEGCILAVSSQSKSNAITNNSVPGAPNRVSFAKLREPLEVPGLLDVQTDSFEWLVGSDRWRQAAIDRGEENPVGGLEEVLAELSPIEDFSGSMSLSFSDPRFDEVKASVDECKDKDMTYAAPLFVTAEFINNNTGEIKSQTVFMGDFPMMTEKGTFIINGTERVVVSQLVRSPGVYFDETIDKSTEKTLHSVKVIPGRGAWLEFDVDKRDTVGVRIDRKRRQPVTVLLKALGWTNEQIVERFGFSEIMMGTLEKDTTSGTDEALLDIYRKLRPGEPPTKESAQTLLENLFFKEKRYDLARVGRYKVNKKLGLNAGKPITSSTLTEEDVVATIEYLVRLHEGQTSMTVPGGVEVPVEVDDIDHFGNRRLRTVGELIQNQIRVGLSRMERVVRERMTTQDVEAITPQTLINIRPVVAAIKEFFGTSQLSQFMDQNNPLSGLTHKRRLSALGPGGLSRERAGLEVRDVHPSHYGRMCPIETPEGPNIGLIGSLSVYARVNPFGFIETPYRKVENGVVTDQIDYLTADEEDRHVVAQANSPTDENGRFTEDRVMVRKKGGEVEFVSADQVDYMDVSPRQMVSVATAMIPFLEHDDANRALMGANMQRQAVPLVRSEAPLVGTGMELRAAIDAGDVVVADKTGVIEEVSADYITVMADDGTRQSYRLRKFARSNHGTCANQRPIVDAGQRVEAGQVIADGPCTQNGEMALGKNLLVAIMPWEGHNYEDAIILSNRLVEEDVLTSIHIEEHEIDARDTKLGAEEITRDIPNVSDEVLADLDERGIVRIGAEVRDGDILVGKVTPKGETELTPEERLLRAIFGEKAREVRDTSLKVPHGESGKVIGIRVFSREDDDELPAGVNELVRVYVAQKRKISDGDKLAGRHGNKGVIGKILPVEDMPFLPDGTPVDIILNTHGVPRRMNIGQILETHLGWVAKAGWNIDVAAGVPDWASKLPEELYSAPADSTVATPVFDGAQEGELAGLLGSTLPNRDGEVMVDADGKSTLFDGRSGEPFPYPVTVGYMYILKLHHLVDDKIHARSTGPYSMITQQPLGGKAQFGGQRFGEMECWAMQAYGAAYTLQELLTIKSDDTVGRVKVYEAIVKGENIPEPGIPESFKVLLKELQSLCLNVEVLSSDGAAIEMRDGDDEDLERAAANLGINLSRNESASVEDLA

How the values were obtained:
[1] = biological target: RNA polymerase β subunit (Mycobacterium smegmatis) (Mycobacterium smegmatis (endogenous in M. smegmatis mc2 155)) (UniProt P60281); assay: co-IP; M. smegmatis lysates (exponential, stationary; also mitomycin C-treated cells); anti-RNAP β [8RB13] or anti-σ70 [2G10] on Protein G plus agarose, 16-18 h at 4°C, 20 mM Tris-HCl pH 7.9, 150 mM KCl, 1 mM MgCl2; silver-stained SDS-PAGE, MALDI-TOF, western blot
[2] = biological target: RNA polymerase β subunit (Mycobacterium smegmatis) (Mycobacterium smegmatis (endogenous in M. smegmatis mc2 155)) (UniProt P60281); assay: co-IP

B1: HelD (Mycobacterium smegmatis) (protein, UniProt A0QUE0 1-736)
chain: MSGRDYEDELQSERDYVAGLYARLDAERAQSQRRYAAALREHGGTAVERDAEVRALAKDIARLNVADNGLCFGRLDTLDDARLYIGRLGIFDRDNDFEPLLLDWRAPMARPFYVATAANPENMRRRRQFHTLGRKVVDFTDEILGRPTGAEHDATNDAALLAAVNAPRGEGMRDIVATIQAEQDQVIRLDHTGVLVIEGGPGTGKTVVALHRVAYLLYTYRKQMERHGVLVVGPTPAFLDHIGRVLPSLGESDAVFMTPGDFVPGLHVTAEDTPEAAEVKGSLKILDVLKAAVADRQELPSEPIPIDLSDVTMRIDAETAKWARDEARKTGLPHNEARAEFVDVVTYVVTERAVARIGRGWLTRDDKHAWEKMRADVVGELEDHEQFNAALDALWPILTPEDVLAQLYTSHERLRAAGAPECLWRADGEAWTVSDVPLLDELVDLLGRNKAADEAAERERREEEAYAAGVLDLMVDREDLMDDEDHLLAQDLIDAEELADRFKEQDNRELSERAAADREWTYGHVVVDEAQELSEMDWRLLMRRCPRRSFTIVGDLAQRRSPAGARSWGAMLDSYVPGRWVYKSLSVNYRTPAEIMAVAAAVLAEFAPDATPPDSVRACGVAPWARQVTDDDIASAIAEFVSEEAGREGTSVVIGPPDVPGTVPPSETKGLEFDAVLVVEPERILADGPRGAAELYVALTRATQRLGVLYRDALPQALAGLAEGDAAATVEQRTSA
- binding [1]: binds

B2: RbpA (Mycobacterium smegmatis) (protein, UniProt A0QZ11 1-114)
chain: MADRVLRGSRLGAVSYETDRNHDLAPRQVARYRTDNGEEFDVPFADDAEIPGTWLCRNGLEGTLIEGDVPEPKKVKPPRTHWDMLLERRSVEELEELLKERLDLIKAKRRGTGS
- binding [2]: binds
